Experimental data reported in the supplement of paper PMC12823440, “Inhibitors supercharge kinase turnover through native proteolytic circuits” (Nature, 2025).
Where a name gives a salt, the structure may show the parent alone. The list shows a part of the results. The calls rarely recur for the same compound in another form.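 Kinases, fused to nanoluciferase, were expressed in K562 cells; luminescence was measured every 4 h from 2 to 18 h as percent of control (DMSO = 100%, positive control = 0%). A time point is decreased if signal falls significantly (2 sigma). Hits were called by the authors by a rule that is not shown; the count of time points alone does not decide it.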

Sequences of proteins named here, by UniProt entry; tags and fusion partners are left off. A change or cut given only in a name is not applied to a line headed by its entry.
UniProt P50613: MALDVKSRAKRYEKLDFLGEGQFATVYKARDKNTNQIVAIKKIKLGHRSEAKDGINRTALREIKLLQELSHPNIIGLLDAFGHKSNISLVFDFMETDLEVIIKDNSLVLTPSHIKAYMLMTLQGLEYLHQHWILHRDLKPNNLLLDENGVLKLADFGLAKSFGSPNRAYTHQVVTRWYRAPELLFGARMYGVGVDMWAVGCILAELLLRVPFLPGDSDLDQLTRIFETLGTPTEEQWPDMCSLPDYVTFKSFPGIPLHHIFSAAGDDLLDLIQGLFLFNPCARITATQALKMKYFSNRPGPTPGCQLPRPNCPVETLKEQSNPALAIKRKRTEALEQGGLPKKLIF
UniProt P50750, whole entry: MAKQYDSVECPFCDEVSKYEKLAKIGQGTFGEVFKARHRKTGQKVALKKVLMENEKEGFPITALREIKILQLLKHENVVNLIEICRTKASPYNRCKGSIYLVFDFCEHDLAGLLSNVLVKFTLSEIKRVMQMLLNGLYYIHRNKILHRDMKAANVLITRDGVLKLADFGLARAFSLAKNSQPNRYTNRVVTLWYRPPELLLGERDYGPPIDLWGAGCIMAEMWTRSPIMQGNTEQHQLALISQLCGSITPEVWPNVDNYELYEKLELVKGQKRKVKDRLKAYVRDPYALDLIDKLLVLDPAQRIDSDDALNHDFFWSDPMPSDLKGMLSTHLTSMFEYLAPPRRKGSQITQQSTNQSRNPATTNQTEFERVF
UniProt P07333, whole entry: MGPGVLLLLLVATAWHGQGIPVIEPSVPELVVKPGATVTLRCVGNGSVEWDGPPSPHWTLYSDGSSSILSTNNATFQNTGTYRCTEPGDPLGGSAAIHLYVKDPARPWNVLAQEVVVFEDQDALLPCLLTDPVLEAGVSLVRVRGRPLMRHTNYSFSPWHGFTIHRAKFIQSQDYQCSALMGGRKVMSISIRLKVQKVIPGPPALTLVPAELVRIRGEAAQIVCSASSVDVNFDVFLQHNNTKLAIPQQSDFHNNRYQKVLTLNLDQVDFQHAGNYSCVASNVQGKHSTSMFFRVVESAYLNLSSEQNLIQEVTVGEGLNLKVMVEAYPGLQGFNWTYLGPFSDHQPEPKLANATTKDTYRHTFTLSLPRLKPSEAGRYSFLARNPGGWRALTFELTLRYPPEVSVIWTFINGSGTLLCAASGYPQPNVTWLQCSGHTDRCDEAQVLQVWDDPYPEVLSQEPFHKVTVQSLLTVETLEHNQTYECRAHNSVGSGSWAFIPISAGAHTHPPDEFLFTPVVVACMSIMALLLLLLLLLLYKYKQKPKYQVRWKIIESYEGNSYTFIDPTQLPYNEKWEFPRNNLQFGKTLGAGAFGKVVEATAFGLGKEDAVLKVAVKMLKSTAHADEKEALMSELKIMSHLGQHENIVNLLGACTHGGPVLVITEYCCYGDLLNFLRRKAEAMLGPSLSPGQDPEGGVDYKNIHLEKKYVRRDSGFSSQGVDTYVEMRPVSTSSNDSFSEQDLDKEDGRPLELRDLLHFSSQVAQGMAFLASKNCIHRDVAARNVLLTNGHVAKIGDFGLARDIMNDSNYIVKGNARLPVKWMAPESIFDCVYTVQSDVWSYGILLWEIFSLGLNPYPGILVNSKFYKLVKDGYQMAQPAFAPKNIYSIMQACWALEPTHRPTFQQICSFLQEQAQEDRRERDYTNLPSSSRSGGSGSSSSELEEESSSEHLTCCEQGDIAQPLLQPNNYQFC
UniProt P48730: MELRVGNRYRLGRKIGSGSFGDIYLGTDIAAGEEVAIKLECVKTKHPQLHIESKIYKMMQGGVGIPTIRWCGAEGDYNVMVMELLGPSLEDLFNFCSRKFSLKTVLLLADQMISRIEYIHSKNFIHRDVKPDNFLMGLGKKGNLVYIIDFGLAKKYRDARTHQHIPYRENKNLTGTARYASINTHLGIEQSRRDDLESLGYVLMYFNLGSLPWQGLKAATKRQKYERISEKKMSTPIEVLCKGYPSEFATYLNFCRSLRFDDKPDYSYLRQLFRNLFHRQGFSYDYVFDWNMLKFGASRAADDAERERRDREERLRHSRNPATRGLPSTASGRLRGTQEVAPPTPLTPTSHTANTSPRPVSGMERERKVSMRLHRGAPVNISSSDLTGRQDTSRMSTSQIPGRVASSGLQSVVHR
UniProt Q08345: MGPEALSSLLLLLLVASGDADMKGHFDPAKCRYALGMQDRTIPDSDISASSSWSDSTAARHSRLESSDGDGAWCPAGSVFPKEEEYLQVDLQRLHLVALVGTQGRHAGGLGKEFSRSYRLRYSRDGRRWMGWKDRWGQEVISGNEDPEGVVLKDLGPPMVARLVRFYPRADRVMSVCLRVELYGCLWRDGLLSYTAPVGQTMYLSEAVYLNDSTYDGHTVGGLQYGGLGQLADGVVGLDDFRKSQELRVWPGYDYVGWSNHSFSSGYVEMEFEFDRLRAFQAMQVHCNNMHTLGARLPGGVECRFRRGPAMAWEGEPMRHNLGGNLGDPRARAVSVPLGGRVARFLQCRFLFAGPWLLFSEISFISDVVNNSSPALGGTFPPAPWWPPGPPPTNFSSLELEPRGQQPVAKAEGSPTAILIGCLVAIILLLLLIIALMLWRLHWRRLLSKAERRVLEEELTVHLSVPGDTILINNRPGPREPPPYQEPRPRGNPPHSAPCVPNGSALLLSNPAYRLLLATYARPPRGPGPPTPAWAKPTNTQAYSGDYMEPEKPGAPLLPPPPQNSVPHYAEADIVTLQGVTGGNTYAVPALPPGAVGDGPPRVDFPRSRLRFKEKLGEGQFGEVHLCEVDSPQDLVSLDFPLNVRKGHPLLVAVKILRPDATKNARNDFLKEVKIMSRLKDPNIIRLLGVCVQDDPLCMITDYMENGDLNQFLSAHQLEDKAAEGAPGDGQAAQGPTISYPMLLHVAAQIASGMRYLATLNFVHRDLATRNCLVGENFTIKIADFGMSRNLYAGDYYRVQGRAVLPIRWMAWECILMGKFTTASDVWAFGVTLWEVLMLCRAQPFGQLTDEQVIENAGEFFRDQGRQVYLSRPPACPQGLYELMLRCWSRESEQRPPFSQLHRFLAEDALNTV
UniProt Q9Y463, whole entry, looked up: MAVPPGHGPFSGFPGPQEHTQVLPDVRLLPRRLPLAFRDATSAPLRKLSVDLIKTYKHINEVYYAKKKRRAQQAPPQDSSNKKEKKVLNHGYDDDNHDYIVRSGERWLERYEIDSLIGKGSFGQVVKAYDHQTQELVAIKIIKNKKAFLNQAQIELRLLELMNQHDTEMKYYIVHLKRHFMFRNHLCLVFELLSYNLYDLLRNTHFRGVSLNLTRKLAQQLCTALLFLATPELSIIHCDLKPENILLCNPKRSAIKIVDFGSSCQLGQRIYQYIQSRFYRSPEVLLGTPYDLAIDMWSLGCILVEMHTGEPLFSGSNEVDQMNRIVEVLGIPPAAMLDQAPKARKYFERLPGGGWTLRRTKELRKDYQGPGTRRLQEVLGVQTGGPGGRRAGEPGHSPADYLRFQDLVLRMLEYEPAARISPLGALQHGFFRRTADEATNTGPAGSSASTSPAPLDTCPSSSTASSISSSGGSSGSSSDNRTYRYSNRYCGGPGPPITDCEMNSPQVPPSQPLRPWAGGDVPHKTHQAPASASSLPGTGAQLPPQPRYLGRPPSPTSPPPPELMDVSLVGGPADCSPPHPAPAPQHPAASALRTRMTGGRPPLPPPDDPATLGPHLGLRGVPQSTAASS
UniProt Q92630: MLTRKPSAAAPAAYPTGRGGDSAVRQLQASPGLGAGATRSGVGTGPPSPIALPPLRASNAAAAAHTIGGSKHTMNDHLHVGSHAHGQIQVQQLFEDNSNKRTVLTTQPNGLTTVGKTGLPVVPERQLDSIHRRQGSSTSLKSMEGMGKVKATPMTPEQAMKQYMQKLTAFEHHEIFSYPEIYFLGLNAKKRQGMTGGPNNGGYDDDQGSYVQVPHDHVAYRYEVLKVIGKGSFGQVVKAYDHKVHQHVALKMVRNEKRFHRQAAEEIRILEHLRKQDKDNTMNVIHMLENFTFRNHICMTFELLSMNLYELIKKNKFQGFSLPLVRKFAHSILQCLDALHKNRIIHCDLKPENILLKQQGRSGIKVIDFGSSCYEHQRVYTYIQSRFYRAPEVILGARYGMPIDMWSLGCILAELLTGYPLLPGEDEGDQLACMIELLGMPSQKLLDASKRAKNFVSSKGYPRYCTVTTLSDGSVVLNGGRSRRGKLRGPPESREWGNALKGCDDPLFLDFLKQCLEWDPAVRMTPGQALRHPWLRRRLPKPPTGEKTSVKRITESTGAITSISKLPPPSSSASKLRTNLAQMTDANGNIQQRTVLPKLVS
UniProt P29317, whole entry: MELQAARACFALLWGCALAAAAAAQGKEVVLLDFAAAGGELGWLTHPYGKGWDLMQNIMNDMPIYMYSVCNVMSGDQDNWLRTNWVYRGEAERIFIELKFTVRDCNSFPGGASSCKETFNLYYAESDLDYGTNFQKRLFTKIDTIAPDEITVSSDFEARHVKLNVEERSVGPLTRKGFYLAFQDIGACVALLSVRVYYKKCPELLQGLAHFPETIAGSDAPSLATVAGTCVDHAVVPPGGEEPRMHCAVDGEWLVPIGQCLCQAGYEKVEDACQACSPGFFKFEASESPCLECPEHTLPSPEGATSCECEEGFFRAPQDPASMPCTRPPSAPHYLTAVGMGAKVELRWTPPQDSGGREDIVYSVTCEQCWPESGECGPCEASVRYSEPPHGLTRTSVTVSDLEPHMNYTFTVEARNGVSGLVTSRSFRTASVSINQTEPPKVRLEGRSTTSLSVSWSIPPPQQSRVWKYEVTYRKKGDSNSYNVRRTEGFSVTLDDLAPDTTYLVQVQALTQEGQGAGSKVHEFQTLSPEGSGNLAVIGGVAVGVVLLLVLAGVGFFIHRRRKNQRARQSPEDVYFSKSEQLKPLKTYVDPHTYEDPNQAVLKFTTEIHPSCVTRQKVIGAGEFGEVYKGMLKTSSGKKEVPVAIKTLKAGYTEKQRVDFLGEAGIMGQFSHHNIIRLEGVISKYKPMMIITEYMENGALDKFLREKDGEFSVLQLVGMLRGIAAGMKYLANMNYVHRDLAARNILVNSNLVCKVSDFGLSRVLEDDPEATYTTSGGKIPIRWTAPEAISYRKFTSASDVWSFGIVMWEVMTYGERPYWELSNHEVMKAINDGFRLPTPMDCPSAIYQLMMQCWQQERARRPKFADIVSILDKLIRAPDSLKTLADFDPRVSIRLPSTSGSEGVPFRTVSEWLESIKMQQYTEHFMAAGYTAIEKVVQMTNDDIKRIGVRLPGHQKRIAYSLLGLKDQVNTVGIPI
UniProt Q15303, whole entry R711C: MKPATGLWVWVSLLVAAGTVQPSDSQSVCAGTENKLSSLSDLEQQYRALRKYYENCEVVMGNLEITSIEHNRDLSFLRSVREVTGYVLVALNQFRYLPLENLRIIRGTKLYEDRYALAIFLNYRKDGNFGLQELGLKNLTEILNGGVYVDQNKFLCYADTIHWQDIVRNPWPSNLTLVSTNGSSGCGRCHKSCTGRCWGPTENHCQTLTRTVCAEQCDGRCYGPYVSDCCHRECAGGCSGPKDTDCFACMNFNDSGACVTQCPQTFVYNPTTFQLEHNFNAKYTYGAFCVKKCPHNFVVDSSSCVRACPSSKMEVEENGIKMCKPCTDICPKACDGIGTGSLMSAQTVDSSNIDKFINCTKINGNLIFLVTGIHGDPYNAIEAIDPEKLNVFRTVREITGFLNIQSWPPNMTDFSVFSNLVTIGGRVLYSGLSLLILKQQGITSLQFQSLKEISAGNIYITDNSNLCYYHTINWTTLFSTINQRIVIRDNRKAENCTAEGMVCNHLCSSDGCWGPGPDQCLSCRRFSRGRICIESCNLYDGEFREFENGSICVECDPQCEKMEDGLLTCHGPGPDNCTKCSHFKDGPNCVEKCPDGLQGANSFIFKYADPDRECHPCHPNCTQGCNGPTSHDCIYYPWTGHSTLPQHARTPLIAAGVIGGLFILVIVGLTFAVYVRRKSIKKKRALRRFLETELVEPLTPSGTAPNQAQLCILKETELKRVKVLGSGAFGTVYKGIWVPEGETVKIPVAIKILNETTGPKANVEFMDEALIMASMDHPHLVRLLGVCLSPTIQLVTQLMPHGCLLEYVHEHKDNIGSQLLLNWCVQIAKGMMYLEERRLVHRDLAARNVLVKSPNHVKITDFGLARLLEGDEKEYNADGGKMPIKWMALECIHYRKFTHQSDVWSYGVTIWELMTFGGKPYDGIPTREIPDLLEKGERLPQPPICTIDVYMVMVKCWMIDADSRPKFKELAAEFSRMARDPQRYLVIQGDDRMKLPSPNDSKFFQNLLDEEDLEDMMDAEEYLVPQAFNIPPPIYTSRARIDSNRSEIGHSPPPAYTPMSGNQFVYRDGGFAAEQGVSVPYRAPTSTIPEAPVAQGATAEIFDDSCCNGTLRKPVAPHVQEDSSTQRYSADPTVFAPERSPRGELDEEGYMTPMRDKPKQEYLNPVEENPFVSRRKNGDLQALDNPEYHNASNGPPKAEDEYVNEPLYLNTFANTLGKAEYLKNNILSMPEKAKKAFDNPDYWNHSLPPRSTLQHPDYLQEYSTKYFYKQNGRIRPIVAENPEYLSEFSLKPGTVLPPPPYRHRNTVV

Key:
Experiment in all cases: kinase-Nluc reporter destabilization hit call (1 = scored as downregulated) (binary); higher = compound decreases kinase abundance
Conditions in all cases: K562; 2-18 h
CDK7 = CDK7 (UniProt P50613)
CDK9 = CDK9 (UniProt P50750)
CHEK2 = CHEK2 (UniProt O96017)
CSF1R = CSF1R (UniProt P07333)
CSK = CSK (UniProt P41240)
CSNK1A1 = CSNK1A1 (UniProt P48729)
CSNK1D = CSNK1D (UniProt P48730)
DDR1 = DDR1 (UniProt Q08345)
DYRK1B = DYRK1B (UniProt Q9Y463)
DYRK2 = DYRK2 (UniProt Q92630)
EGFR = EGFR (UniProt P00533)
EGFR_G719S = EGFR_G719S (UniProt P00533)
EGFR_G719S_T790M = EGFR_G719S_T790M (UniProt P00533)
EGFR_L718V = EGFR_L718V (UniProt P00533)
EGFR_L858R = EGFR_L858R (UniProt P00533)
EGFR_L861Q = EGFR_L861Q (UniProt P00533)
EGFR_T790M = EGFR_T790M (UniProt P00533)
EPHA2 = EPHA2 (UniProt P29317)
ERBB3 = ERBB3 (UniProt P21860)
[1] = target: ERBB4_R711C (clone: ERBB4_mut) (UniProt Q15303)

Measured: kinase-Nluc reporter destabilization hit call

C[C@H](Nc1ccc2c(c1)OCCn1cc(N3C(=O)OC[C@H]3C(F)F)nc1-2)C(N)=O (10 µM)
inactive: CDK7 = 0 | CDK9 = 0 | CHEK2 = 0 | CSF1R 0 | CSK 0 | CSNK1A1 = 0 | CSNK1D 0 | DDR1 = 0 | DYRK1B 0 | EGFR 0 | EGFR_G719S 0 | EGFR_G719S_T790M 0 | EGFR_L718V 0 | EGFR_L858R 0 | EGFR_L861Q 0 | EGFR_T790M 0 | EPHA2 = 0 | ERBB3 = 0 | [1] 0
active: DYRK2 = 1

CNC[C@@H](NC(=O)c1ccc(-c2nc([C@H]3CC[C@H](O)[C@@H](F)C3)cnc2N)cc1F)c1cc(F)cc(Br)c1 [Rineterkib] (10 µM)
inactive: CDK7 = 0 | CDK9 = 0 | CHEK2 = 0 | CSF1R 0 | CSK 0 | CSNK1A1 = 0 | CSNK1D 0 | DDR1 = 0 | DYRK1B 0 | DYRK2 = 0 | EGFR 0 | EGFR_G719S 0 | EGFR_G719S_T790M 0 | EGFR_L718V 0 | EGFR_L858R 0 | EGFR_L861Q 0 | EGFR_T790M 0 | EPHA2 = 0 | ERBB3 = 0 | [1] 0

Cc1cc(=O)[nH]c(=S)[nH]1 [Methylthiouracil] (10 µM)
inactive: CDK7 = 0 | CDK9 = 0 | CHEK2 = 0 | CSF1R 0 | CSK 0 | CSNK1A1 = 0 | CSNK1D 0 | DDR1 = 0 | DYRK1B 0 | DYRK2 = 0 | EGFR 0 | EGFR_G719S 0 | EGFR_G719S_T790M 0 | EGFR_L718V 0 | EGFR_L858R 0 | EGFR_L861Q 0 | EGFR_T790M 0 | EPHA2 = 0 | ERBB3 = 0 | [1] 0

CCCCCC1CC1CC1CC1CCCCCCCC(=O)O (stereo not given) (10 µM)
inactive: CDK7 = 0 | CDK9 = 0 | CHEK2 = 0 | CSF1R 0 | CSK 0 | CSNK1A1 = 0 | CSNK1D 0 | DDR1 = 0 | DYRK1B 0 | DYRK2 = 0 | EGFR 0 | EGFR_G719S 0 | EGFR_G719S_T790M 0 | EGFR_L718V 0 | EGFR_L858R 0 | EGFR_L861Q 0 | EGFR_T790M 0 | EPHA2 = 0 | ERBB3 = 0 | [1] 0

CNCCOc1ccccc1C(C)(C)Nc1nccn(-c2cc(C(=O)NC3CC3)ccc2C)c1=O [p38α inhibitor 2] (10 µM)
inactive: CDK7 = 0 | CDK9 = 0 | CHEK2 = 0 | CSF1R 0 | CSK 0 | CSNK1A1 = 0 | CSNK1D 0 | DDR1 = 0 | DYRK1B 0 | DYRK2 = 0 | EGFR 0 | EGFR_G719S 0 | EGFR_G719S_T790M 0 | EGFR_L718V 0 | EGFR_L858R 0 | EGFR_L861Q 0 | EGFR_T790M 0 | EPHA2 = 0 | ERBB3 = 0 | [1] 0

CNC(=O)Nc1cc(Oc2cncc(C)c2)c(-c2ccc(OCC(C)(C)O)nc2)cn1 (2.5 µM)
inactive: CDK7 = 0 | CDK9 = 0 | CHEK2 = 0 | CSF1R 0 | CSK 0 | CSNK1A1 = 0 | CSNK1D 0 | DDR1 = 0 | DYRK1B 0 | DYRK2 = 0 | EGFR 0 | EGFR_G719S 0 | EGFR_G719S_T790M 0 | EGFR_L718V 0 | EGFR_L858R 0 | EGFR_L861Q 0 | EGFR_T790M 0 | EPHA2 = 0 | ERBB3 = 0 | [1] 0

O=c1cc(N2CCOCC2)oc2c1ccc1ccccc12 (2 µM)
inactive: CDK7 = 0 | CDK9 = 0 | CHEK2 = 0 | CSF1R 0 | CSK 0 | CSNK1A1 = 0 | CSNK1D 0 | DDR1 = 0 | DYRK1B 0 | DYRK2 = 0 | EGFR 0 | EGFR_G719S 0 | EGFR_G719S_T790M 0 | EGFR_L718V 0 | EGFR_L858R 0 | EGFR_L861Q 0 | EGFR_T790M 0 | EPHA2 = 0 | ERBB3 = 0 | [1] 0

5 consecutive entries already listed, for reference:
Cc1cc(=O)[nH]c(=S)[nH]1 [Methylthiouracil] (10 µM)
inactive: CDK7 = 0 | CDK9 = 0 | CHEK2 = 0 | CSF1R 0 | CSK 0 | CSNK1A1 = 0 | CSNK1D 0 | DDR1 = 0 | DYRK1B 0 | DYRK2 = 0 | EGFR 0 | EGFR_G719S 0 | EGFR_G719S_T790M 0 | EGFR_L718V 0 | EGFR_L858R 0 | EGFR_L861Q 0 | EGFR_T790M 0 | EPHA2 = 0 | ERBB3 = 0 | [1] 0

CCCCCC1CC1CC1CC1CCCCCCCC(=O)O (stereo not given) (10 µM)
inactive: CDK7 = 0 | CDK9 = 0 | CHEK2 = 0 | CSF1R 0 | CSK 0 | CSNK1A1 = 0 | CSNK1D 0 | DDR1 = 0 | DYRK1B 0 | DYRK2 = 0 | EGFR 0 | EGFR_G719S 0 | EGFR_G719S_T790M 0 | EGFR_L718V 0 | EGFR_L858R 0 | EGFR_L861Q 0 | EGFR_T790M 0 | EPHA2 = 0 | ERBB3 = 0 | [1] 0

CNCCOc1ccccc1C(C)(C)Nc1nccn(-c2cc(C(=O)NC3CC3)ccc2C)c1=O [p38α inhibitor 2] (10 µM)
inactive: CDK7 = 0 | CDK9 = 0 | CHEK2 = 0 | CSF1R 0 | CSK 0 | CSNK1A1 = 0 | CSNK1D 0 | DDR1 = 0 | DYRK1B 0 | DYRK2 = 0 | EGFR 0 | EGFR_G719S 0 | EGFR_G719S_T790M 0 | EGFR_L718V 0 | EGFR_L858R 0 | EGFR_L861Q 0 | EGFR_T790M 0 | EPHA2 = 0 | ERBB3 = 0 | [1] 0

CNC(=O)Nc1cc(Oc2cncc(C)c2)c(-c2ccc(OCC(C)(C)O)nc2)cn1 (2.5 µM)
inactive: CDK7 = 0 | CDK9 = 0 | CHEK2 = 0 | CSF1R 0 | CSK 0 | CSNK1A1 = 0 | CSNK1D 0 | DDR1 = 0 | DYRK1B 0 | DYRK2 = 0 | EGFR 0 | EGFR_G719S 0 | EGFR_G719S_T790M 0 | EGFR_L718V 0 | EGFR_L858R 0 | EGFR_L861Q 0 | EGFR_T790M 0 | EPHA2 = 0 | ERBB3 = 0 | [1] 0

O=c1cc(N2CCOCC2)oc2c1ccc1ccccc12 (2 µM)
inactive: CDK7 = 0 | CDK9 = 0 | CHEK2 = 0 | CSF1R 0 | CSK 0 | CSNK1A1 = 0 | CSNK1D 0 | DDR1 = 0 | DYRK1B 0 | DYRK2 = 0 | EGFR 0 | EGFR_G719S 0 | EGFR_G719S_T790M 0 | EGFR_L718V 0 | EGFR_L858R 0 | EGFR_L861Q 0 | EGFR_T790M 0 | EPHA2 = 0 | ERBB3 = 0 | [1] 0

(next part)

CC(C)[C@H](CO)Nc1nc(Nc2ccc(C(=O)O)c(Cl)c2)c2ncn(C(C)C)c2n1 [Purvalanol B] (10 µM)
inactive: CDK7 = 0 | CDK9 = 0 | CHEK2 = 0 | CSF1R 0 | CSK 0 | CSNK1A1 = 0 | CSNK1D 0 | DDR1 = 0 | DYRK1B 0 | DYRK2 = 0 | EGFR 0 | EGFR_G719S 0 | EGFR_G719S_T790M 0 | EGFR_L718V 0 | EGFR_L858R 0 | EGFR_L861Q 0 | EGFR_T790M 0 | EPHA2 = 0 | ERBB3 = 0 | [1] 0

CCCCNc1ncc2c(-c3ccc(CN4CCN(C)CC4)cc3)cn([C@H]3CC[C@H](O)CC3)c2n1 [UNC2025 (hydrochloride)] (2.5 µM)
inactive: CDK7 = 0 | CDK9 = 0 | CHEK2 = 0 | CSF1R 0 | CSK 0 | CSNK1A1 = 0 | CSNK1D 0 | DDR1 = 0 | DYRK1B 0 | DYRK2 = 0 | EGFR 0 | EGFR_G719S 0 | EGFR_G719S_T790M 0 | EGFR_L718V 0 | EGFR_L858R 0 | EGFR_L861Q 0 | EGFR_T790M 0 | EPHA2 = 0 | ERBB3 = 0 | [1] 0

CC(=O)Nc1nc(C)c(-c2ccc(Cl)c(S(=O)(=O)NCCO)c2)s1 (10 µM)
inactive: CDK7 = 0 | CDK9 = 0 | CHEK2 = 0 | CSF1R 0 | CSK 0 | CSNK1A1 = 0 | CSNK1D 0 | DDR1 = 0 | DYRK1B 0 | DYRK2 = 0 | EGFR 0 | EGFR_G719S 0 | EGFR_G719S_T790M 0 | EGFR_L718V 0 | EGFR_L858R 0 | EGFR_L861Q 0 | EGFR_T790M 0 | EPHA2 = 0 | ERBB3 = 0 | [1] 0

CS(=O)(=O)N1CCN(Cc2cn3cc(-c4cnc(N)nc4)nc(N4CCOCC4)c3n2)CC1 (10 µM)
inactive: CDK7 = 0 | CDK9 = 0 | CHEK2 = 0 | CSF1R 0 | CSK 0 | CSNK1A1 = 0 | CSNK1D 0 | DDR1 = 0 | DYRK1B 0 | DYRK2 = 0 | EGFR 0 | EGFR_G719S 0 | EGFR_G719S_T790M 0 | EGFR_L718V 0 | EGFR_L858R 0 | EGFR_L861Q 0 | EGFR_T790M 0 | EPHA2 = 0 | ERBB3 = 0 | [1] 0

COc1ccc(C(=O)c2cn(C(C)C)c3ncnc(N)c23)cc1NC(=O)Nc1ccc(Cl)cc1Cl (10 µM)
inactive: CDK7 = 0 | CDK9 = 0 | CHEK2 = 0 | CSF1R 0 | CSK 0 | CSNK1A1 = 0 | CSNK1D 0 | DDR1 = 0 | DYRK1B 0 | DYRK2 = 0 | EGFR 0 | EGFR_G719S 0 | EGFR_G719S_T790M 0 | EGFR_L718V 0 | EGFR_L858R 0 | EGFR_L861Q 0 | EGFR_T790M 0 | EPHA2 = 0 | ERBB3 = 0 | [1] 0

COC(=O)/C=C/c1ccc(O)c(OC)c1 [Ferulic acid methyl ester] (10 µM)
inactive: CDK7 = 0 | CDK9 = 0 | CHEK2 = 0 | CSF1R 0 | CSK 0 | CSNK1A1 = 0 | CSNK1D 0 | DDR1 = 0 | DYRK1B 0 | DYRK2 = 0 | EGFR 0 | EGFR_G719S 0 | EGFR_G719S_T790M 0 | EGFR_L718V 0 | EGFR_L858R 0 | EGFR_L861Q 0 | EGFR_T790M 0 | EPHA2 = 0 | ERBB3 = 0 | [1] 0

Cc1ccc(Nc2c(C(N)=O)cnc3cc(-c4ccncc4)ccc23)cc1C [cFMS Receptor Inhibitor II] (10 µM)
inactive: CDK7 = 0 | CDK9 = 0 | CHEK2 = 0 | CSF1R 0 | CSK 0 | CSNK1A1 = 0 | CSNK1D 0 | DDR1 = 0 | DYRK1B 0 | DYRK2 = 0 | EGFR 0 | EGFR_G719S 0 | EGFR_G719S_T790M 0 | EGFR_L718V 0 | EGFR_L858R 0 | EGFR_L861Q 0 | EGFR_T790M 0 | EPHA2 = 0 | ERBB3 = 0 | [1] 0

CCCC[C@H](CO)Nc1nc(NC)ncc1OC [Interferon receptor inducer-1] (10 µM)
inactive: CDK7 = 0 | CDK9 = 0 | CHEK2 = 0 | CSF1R 0 | CSK 0 | CSNK1A1 = 0 | CSNK1D 0 | DDR1 = 0 | DYRK1B 0 | DYRK2 = 0 | EGFR 0 | EGFR_G719S 0 | EGFR_G719S_T790M 0 | EGFR_L718V 0 | EGFR_L858R 0 | EGFR_L861Q 0 | EGFR_T790M 0 | EPHA2 = 0 | ERBB3 = 0 | [1] 0

CCc1nc(C(N)=O)c(Nc2ccc(N3CCC(N4CCN(C)CC4)CC3)c(OC)c2)nc1NC1CCC(OC)CC1 (stereo not given) [EML4-ALK kinase inhibitor 1] (2.5 µM)
inactive: CDK7 = 0 | CDK9 = 0 | CHEK2 = 0 | CSF1R 0 | CSK 0 | CSNK1A1 = 0 | CSNK1D 0 | DDR1 = 0 | DYRK1B 0 | DYRK2 = 0 | EGFR 0 | EGFR_G719S 0 | EGFR_G719S_T790M 0 | EGFR_L718V 0 | EGFR_L858R 0 | EGFR_L861Q 0 | EGFR_T790M 0 | EPHA2 = 0 | ERBB3 = 0 | [1] 0

CC(C)(C)NS(=O)(=O)c1cncc(-c2cc(F)c3nc(N)nn3c2)c1 (10 µM)
inactive: CDK7 = 0 | CDK9 = 0 | CHEK2 = 0 | CSF1R 0 | CSK 0 | CSNK1A1 = 0 | CSNK1D 0 | DDR1 = 0 | DYRK1B 0 | DYRK2 = 0 | EGFR 0 | EGFR_G719S 0 | EGFR_G719S_T790M 0 | EGFR_L718V 0 | EGFR_L858R 0 | EGFR_L861Q 0 | EGFR_T790M 0 | EPHA2 = 0 | ERBB3 = 0 | [1] 0

O=C(Nc1nccs1)C(c1cc(F)ccc1O)N1Cc2ccc(-c3ccc(N4CCNCC4)cc3)cc2C1=O (racemic) (10 µM)
inactive: CDK7 = 0 | CDK9 = 0 | CHEK2 = 0 | CSF1R 0 | CSK 0 | CSNK1A1 = 0 | CSNK1D 0 | DDR1 = 0 | DYRK1B 0 | DYRK2 = 0 | EGFR 0 | EGFR_G719S 0 | EGFR_G719S_T790M 0 | EGFR_L718V 0 | EGFR_L858R 0 | EGFR_L861Q 0 | EGFR_T790M 0 | EPHA2 = 0 | ERBB3 = 0 | [1] 0
